According to the supplement of paper PMC12823440, “Inhibitors supercharge kinase turnover through native proteolytic circuits” (Nature, 2025):
Counter-ions that a name gives are not always drawn. The list shows a part of the results. The calls rarely recur for the same compound in another form.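 Kinases, fused to nanoluciferase, were expressed in K562 cells; luminescence was measured every 4 h from 2 to 18 h as percent of control (DMSO = 100%, positive control = 0%). A time point is decreased if signal falls significantly (2 sigma). Hits were called by the authors by a rule that is not shown; the count of time points alone does not decide it.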

Protein sequences, listed by entry. Tags and fused reporters are not part of them. Lines headed by an entry give the natural chain unless they say otherwise; changes in a name come on top.
UniProt P31749: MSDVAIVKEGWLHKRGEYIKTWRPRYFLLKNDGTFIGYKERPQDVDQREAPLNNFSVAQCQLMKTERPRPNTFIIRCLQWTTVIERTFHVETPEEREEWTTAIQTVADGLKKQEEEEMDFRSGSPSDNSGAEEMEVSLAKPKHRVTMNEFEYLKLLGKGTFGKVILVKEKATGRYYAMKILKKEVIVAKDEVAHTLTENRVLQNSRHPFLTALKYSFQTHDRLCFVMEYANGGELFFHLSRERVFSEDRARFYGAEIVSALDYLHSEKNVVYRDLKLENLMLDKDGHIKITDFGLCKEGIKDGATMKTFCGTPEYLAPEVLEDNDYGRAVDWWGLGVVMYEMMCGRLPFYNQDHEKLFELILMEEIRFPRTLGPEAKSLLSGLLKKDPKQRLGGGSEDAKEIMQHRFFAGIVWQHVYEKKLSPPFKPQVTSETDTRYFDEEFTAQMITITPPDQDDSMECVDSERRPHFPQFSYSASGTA
UniProt Q9UM73: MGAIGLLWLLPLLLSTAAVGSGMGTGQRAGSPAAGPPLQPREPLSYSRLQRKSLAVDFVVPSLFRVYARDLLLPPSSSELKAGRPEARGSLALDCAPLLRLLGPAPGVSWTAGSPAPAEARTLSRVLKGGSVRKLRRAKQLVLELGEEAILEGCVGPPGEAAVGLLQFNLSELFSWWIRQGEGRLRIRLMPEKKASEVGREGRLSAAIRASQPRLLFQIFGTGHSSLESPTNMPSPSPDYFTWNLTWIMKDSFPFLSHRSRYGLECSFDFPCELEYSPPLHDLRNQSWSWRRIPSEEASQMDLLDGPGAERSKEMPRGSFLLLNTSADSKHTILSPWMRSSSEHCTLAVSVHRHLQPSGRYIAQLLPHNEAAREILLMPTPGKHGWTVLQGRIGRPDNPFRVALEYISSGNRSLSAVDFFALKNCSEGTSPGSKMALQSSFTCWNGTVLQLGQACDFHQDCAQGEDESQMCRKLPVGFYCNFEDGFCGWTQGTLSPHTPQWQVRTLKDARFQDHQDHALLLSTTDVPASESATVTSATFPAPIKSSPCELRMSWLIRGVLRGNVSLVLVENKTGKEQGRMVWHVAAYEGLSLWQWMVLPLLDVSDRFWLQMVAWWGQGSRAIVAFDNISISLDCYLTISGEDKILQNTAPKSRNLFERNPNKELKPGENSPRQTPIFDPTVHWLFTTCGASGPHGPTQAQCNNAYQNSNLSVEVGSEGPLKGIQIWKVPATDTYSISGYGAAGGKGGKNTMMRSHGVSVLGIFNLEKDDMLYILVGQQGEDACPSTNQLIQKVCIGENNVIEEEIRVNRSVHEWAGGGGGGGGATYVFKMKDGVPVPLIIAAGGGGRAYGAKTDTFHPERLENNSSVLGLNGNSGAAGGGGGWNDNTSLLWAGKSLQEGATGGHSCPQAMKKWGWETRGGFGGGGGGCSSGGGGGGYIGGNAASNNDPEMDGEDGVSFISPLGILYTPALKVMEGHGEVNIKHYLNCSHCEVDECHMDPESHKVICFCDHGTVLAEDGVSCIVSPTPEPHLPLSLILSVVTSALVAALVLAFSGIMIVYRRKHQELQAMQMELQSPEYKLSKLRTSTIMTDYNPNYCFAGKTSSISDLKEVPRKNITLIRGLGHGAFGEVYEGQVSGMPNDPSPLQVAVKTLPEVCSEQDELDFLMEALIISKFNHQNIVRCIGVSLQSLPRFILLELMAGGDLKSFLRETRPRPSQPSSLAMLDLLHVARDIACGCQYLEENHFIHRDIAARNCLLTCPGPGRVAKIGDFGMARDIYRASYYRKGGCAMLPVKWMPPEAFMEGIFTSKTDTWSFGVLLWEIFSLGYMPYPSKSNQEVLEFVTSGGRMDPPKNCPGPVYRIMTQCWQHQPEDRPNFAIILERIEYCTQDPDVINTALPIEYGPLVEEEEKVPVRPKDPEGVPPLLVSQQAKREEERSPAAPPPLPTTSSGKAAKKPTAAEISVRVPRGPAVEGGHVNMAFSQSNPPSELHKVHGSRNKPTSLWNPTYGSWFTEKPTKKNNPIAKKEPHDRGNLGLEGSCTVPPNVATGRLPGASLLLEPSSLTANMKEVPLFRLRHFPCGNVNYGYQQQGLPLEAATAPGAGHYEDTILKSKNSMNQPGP
UniProt O14965: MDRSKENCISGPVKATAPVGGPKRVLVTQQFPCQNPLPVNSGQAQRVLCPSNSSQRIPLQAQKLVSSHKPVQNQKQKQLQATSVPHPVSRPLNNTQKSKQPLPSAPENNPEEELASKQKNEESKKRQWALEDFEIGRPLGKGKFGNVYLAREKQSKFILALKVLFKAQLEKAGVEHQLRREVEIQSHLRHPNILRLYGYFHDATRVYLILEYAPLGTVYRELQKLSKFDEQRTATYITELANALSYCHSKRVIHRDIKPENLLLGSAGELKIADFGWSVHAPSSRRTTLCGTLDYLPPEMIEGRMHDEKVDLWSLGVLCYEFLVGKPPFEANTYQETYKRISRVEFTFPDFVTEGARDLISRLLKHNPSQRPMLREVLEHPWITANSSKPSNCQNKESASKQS
UniProt Q96GD4, whole entry: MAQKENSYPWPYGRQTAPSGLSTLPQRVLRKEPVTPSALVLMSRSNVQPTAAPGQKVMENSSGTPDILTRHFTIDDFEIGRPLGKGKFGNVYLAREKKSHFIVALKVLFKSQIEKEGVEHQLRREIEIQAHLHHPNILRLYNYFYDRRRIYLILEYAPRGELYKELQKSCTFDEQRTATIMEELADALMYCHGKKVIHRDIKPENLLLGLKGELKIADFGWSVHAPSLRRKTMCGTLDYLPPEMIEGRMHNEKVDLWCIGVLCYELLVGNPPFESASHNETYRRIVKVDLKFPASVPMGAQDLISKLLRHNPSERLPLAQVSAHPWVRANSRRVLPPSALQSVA
UniProt Q9UQB9: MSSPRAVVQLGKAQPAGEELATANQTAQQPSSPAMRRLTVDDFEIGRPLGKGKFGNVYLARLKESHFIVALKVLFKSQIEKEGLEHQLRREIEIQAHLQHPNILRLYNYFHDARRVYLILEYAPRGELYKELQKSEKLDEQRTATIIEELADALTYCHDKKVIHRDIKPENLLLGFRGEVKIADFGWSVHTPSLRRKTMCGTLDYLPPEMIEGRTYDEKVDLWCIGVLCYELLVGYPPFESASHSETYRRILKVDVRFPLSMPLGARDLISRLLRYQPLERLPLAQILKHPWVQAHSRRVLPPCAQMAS
UniProt P51451: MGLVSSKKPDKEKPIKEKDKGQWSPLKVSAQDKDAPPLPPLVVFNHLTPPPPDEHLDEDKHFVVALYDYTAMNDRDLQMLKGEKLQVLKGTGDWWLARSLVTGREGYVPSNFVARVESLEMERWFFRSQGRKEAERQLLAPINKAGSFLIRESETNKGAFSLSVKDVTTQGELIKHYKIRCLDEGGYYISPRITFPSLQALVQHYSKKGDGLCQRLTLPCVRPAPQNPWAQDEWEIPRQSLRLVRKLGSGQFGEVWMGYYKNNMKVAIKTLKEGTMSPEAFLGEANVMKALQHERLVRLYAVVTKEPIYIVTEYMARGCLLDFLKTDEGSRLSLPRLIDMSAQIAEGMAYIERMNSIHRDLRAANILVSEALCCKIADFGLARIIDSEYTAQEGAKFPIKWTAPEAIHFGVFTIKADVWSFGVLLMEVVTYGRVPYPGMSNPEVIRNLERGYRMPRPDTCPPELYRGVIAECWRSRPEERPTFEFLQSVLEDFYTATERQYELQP
UniProt P15056, whole entry, looked up: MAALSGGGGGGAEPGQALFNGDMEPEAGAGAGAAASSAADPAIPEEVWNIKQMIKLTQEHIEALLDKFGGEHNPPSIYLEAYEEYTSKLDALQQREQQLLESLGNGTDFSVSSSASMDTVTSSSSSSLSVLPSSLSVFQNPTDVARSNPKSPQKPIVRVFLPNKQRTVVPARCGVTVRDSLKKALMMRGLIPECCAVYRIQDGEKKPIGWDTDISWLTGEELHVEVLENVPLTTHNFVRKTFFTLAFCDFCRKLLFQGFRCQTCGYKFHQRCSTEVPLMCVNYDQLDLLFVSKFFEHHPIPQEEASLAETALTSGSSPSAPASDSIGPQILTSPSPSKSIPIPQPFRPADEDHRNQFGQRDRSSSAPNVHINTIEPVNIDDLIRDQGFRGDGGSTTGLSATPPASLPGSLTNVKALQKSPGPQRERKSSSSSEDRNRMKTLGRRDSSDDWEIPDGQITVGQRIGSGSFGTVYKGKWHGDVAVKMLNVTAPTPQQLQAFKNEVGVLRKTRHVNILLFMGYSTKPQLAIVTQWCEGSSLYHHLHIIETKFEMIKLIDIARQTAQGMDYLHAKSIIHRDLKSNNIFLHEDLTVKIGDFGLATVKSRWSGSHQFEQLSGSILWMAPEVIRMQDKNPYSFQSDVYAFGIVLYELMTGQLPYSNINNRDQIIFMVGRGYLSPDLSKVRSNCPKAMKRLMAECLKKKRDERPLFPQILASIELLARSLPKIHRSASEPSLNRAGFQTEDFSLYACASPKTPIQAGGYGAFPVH
UniProt Q06187: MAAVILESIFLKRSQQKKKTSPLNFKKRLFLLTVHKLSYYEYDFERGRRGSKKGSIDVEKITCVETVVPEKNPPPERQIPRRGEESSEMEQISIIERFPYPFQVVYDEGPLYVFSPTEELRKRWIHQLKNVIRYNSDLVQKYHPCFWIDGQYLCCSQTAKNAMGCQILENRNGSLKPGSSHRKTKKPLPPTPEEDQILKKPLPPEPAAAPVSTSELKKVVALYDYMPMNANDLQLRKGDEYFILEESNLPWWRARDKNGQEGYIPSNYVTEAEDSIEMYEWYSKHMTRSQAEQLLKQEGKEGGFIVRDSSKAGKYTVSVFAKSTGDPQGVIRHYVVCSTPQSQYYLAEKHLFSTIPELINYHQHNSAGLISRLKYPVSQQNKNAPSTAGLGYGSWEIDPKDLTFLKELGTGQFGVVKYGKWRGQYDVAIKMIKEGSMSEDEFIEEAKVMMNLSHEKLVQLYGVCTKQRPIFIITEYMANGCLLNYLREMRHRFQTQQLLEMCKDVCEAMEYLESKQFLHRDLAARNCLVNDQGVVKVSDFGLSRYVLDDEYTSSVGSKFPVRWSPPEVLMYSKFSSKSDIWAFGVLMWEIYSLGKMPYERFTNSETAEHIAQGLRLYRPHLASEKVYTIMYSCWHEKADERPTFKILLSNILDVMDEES
UniProt Q9UQM7, whole entry: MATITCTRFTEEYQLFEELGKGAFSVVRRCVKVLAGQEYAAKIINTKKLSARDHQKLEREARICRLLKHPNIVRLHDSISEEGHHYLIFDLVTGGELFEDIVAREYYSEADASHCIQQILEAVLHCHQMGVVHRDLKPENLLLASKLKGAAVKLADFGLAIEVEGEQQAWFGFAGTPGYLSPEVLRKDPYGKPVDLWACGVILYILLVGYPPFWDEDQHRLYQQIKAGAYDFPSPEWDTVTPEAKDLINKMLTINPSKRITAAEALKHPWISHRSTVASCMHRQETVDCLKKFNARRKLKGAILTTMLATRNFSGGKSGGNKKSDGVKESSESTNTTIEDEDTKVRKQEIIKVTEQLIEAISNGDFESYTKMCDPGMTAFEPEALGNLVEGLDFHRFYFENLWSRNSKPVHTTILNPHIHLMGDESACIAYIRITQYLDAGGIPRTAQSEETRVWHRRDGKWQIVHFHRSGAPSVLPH
UniProt Q15131: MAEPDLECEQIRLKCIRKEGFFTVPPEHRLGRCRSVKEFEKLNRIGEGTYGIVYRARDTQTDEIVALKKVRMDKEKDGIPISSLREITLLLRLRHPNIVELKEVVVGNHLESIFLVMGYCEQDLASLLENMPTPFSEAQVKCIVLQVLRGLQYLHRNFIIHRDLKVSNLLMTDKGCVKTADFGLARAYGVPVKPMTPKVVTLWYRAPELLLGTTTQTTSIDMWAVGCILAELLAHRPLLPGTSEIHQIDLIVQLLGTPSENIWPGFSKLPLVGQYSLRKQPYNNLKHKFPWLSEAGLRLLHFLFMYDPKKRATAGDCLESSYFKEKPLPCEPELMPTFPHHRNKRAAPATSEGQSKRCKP
UniProt Q00526: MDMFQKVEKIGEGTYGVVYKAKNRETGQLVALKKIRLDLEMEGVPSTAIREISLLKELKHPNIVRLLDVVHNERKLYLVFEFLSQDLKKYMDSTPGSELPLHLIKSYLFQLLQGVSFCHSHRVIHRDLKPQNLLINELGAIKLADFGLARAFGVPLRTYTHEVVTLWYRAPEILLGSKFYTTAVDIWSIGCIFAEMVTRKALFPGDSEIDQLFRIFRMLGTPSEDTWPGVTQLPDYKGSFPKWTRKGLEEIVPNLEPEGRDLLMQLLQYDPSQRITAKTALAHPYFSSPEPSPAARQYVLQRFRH
UniProt Q00534, whole entry: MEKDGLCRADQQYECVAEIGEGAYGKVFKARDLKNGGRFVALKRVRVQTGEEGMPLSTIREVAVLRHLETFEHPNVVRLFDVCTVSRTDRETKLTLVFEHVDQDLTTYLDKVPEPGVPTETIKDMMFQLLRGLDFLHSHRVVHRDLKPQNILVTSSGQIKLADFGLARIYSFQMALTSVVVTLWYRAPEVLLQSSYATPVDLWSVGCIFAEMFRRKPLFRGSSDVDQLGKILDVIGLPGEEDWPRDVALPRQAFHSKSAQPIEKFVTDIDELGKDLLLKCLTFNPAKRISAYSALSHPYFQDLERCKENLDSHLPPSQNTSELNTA

What was measured:
Test in all cases: kinase-Nluc reporter destabilization hit call (1 = scored as downregulated) (binary); higher = compound decreases kinase abundance
Conditions in all cases: K562; 2-18 h
ABL1 = ABL1 (UniProt P00519)
AKT1 = AKT1 (UniProt P31749)
ALK = ALK (UniProt Q9UM73)
ARAF = ARAF (UniProt P10398)
AURKA = AURKA (UniProt O14965)
AURKB = AURKB (UniProt Q96GD4)
AURKC = AURKC (UniProt Q9UQB9)
BLK = BLK (UniProt P51451)
BMX = BMX (UniProt P51813)
BRAF = BRAF (UniProt P15056)
BRAF_V600E = tested on: BRAF_V600E
BTK = BTK (UniProt Q06187)
CAMK2A = CAMK2A (UniProt Q9UQM7)
CAMK2G = CAMK2G (UniProt Q13555)
CDK10 = CDK10 (UniProt Q15131)
CDK2 = CDK2 (UniProt P24941)
CDK3 = CDK3 (UniProt Q00526)
CDK4 = CDK4 (UniProt P11802)
CDK5 = CDK5 (UniProt Q00535)
CDK6 = CDK6 (UniProt Q00534)

Measured: kinase-Nluc reporter destabilization hit call

CN(C)C(=O)Cn1cc(-c2ccc(-c3cncc4ccccc34)cc2)cn1 (10 µM)
inactive: ABL1 = 0 | AKT1 = 0 | ALK 0 | ARAF 0 | AURKA 0 | AURKB 0 | AURKC 0 | BLK 0 | BMX 0 | BRAF 0 | BRAF_V600E 0 | BTK 0 | CAMK2A 0 | CAMK2G 0 | CDK10 = 0 | CDK2 = 0 | CDK3 = 0 | CDK4 = 0 | CDK5 = 0 | CDK6 = 0

Cc1ccc(OCCSc2ncccn2)c(Br)c1 [ZLN024 (hydrochloride)] (10 µM)
inactive: ABL1 = 0 | AKT1 = 0 | ALK 0 | ARAF 0 | AURKA 0 | AURKB 0 | AURKC 0 | BLK 0 | BMX 0 | BRAF 0 | BRAF_V600E 0 | BTK 0 | CAMK2A 0 | CAMK2G 0 | CDK10 = 0 | CDK2 = 0 | CDK3 = 0 | CDK4 = 0 | CDK5 = 0 | CDK6 = 0

C[C@]1(O)CCN(c2nc(N3C[C@H](O)[C@@H](O)C3)cc(C(F)(F)F)c2C#N)C1 (10 µM)
inactive: ABL1 = 0 | AKT1 = 0 | ALK 0 | ARAF 0 | AURKA 0 | AURKB 0 | AURKC 0 | BLK 0 | BMX 0 | BRAF 0 | BRAF_V600E 0 | BTK 0 | CAMK2A 0 | CAMK2G 0 | CDK10 = 0 | CDK2 = 0 | CDK3 = 0 | CDK4 = 0 | CDK5 = 0 | CDK6 = 0

Cc1ccccc1-c1c2nccc(-c3ccc(F)cc3F)c2cc[n+]1[O-] (10 µM)
inactive: ABL1 = 0 | AKT1 = 0 | ALK 0 | ARAF 0 | AURKA 0 | AURKB 0 | AURKC 0 | BLK 0 | BMX 0 | BRAF 0 | BRAF_V600E 0 | BTK 0 | CAMK2A 0 | CAMK2G 0 | CDK10 = 0 | CDK2 = 0 | CDK3 = 0 | CDK4 = 0 | CDK5 = 0 | CDK6 = 0

O=C(NCCN1CCOCC1)c1cc2c(Oc3ccc(NC(=O)C4(C(=O)Nc5ccc(F)cc5)CC4)cc3)ccnc2[nH]1 [Tyrosine kinase inhibitor] (10 µM)
inactive: ABL1 = 0 | AKT1 = 0 | ALK 0 | ARAF 0 | AURKA 0 | AURKB 0 | AURKC 0 | BLK 0 | BMX 0 | BRAF 0 | BRAF_V600E 0 | BTK 0 | CAMK2A 0 | CAMK2G 0 | CDK10 = 0 | CDK2 = 0 | CDK3 = 0 | CDK4 = 0 | CDK5 = 0 | CDK6 = 0

OCCn1cc(-c2ccc3c(c2)CC/C3=N\O)c(-c2ccncc2)n1 (10 µM)
inactive: ABL1 = 0 | AKT1 = 0 | ALK 0 | ARAF 0 | AURKA 0 | AURKB 0 | AURKC 0 | BLK 0 | BMX 0 | BRAF 0 | BRAF_V600E 0 | BTK 0 | CAMK2A 0 | CAMK2G 0 | CDK10 = 0 | CDK2 = 0 | CDK3 = 0 | CDK4 = 0 | CDK5 = 0 | CDK6 = 0

CNc1nc(Nc2ccc(C(=O)N3CCOCC3)cc2OC)nc2[nH]cc(Cl)c12 (2.5 µM)
inactive: ABL1 = 0 | AKT1 = 0 | ALK 0 | ARAF 0 | AURKA 0 | AURKB 0 | AURKC 0 | BLK 0 | BMX 0 | BRAF 0 | BRAF_V600E 0 | BTK 0 | CAMK2A 0 | CAMK2G 0 | CDK10 = 0 | CDK2 = 0 | CDK3 = 0 | CDK4 = 0 | CDK5 = 0 | CDK6 = 0

c1cc(-c2c[nH]c3nccc(N4CCC[C@@]5(CCCCN5)C4)c23)ncn1 (10 µM)
inactive: ABL1 = 0 | AKT1 = 0 | ALK 0 | ARAF 0 | AURKA 0 | AURKB 0 | AURKC 0 | BLK 0 | BMX 0 | BRAF 0 | BRAF_V600E 0 | BTK 0 | CAMK2A 0 | CAMK2G 0 | CDK10 = 0 | CDK2 = 0 | CDK3 = 0 | CDK4 = 0 | CDK5 = 0 | CDK6 = 0

C[C@@H]1CC[C@@H](Nc2nc(NC(C)(C)C)ncc2C(N)=O)C[C@H]1O (10 µM)
inactive: ABL1 = 0 | AKT1 = 0 | ALK 0 | ARAF 0 | AURKA 0 | AURKB 0 | AURKC 0 | BLK 0 | BMX 0 | BRAF 0 | BRAF_V600E 0 | BTK 0 | CAMK2A 0 | CAMK2G 0 | CDK10 = 0 | CDK2 = 0 | CDK3 = 0 | CDK4 = 0 | CDK5 = 0 | CDK6 = 0

CC1CCc2c(cc(Br)c(F)c2Br)N1C=O (stereo not given) (10 µM)
inactive: ABL1 = 0 | AKT1 = 0 | ALK 0 | ARAF 0 | AURKA 0 | AURKB 0 | AURKC 0 | BLK 0 | BMX 0 | BRAF 0 | BRAF_V600E 0 | BTK 0 | CAMK2A 0 | CAMK2G 0 | CDK10 = 0 | CDK2 = 0 | CDK3 = 0 | CDK4 = 0 | CDK5 = 0 | CDK6 = 0

COc1cc2c(cc1OC)CN(S(=O)(=O)c1ccc(OC)c(N3CCN(C(=O)c4ccc(F)cc4C(F)(F)F)CC3)c1)CC2 (10 µM)
inactive: ABL1 = 0 | AKT1 = 0 | ALK 0 | ARAF 0 | AURKA 0 | AURKB 0 | AURKC 0 | BLK 0 | BMX 0 | BRAF 0 | BRAF_V600E 0 | BTK 0 | CAMK2A 0 | CAMK2G 0 | CDK10 = 0 | CDK2 = 0 | CDK3 = 0 | CDK4 = 0 | CDK5 = 0 | CDK6 = 0

NC(=O)c1nnc(N[C@@H]2CCCC[C@@H]2N)nc1Nc1cccc2cc[nH]c12 (10 µM)
inactive: ABL1 = 0 | AKT1 = 0 | ALK 0 | ARAF 0 | AURKA 0 | AURKB 0 | AURKC 0 | BLK 0 | BMX 0 | BRAF 0 | BRAF_V600E 0 | BTK 0 | CAMK2A 0 | CAMK2G 0 | CDK10 = 0 | CDK2 = 0 | CDK3 = 0 | CDK4 = 0 | CDK5 = 0 | CDK6 = 0

Cn1cc(-c2cnn3c(N)c(Br)c([C@@H]4CCCNC4)nc23)cn1 (2.5 µM)
inactive: ABL1 = 0 | AKT1 = 0 | ALK 0 | ARAF 0 | AURKA 0 | AURKB 0 | AURKC 0 | BLK 0 | BMX 0 | BRAF 0 | BRAF_V600E 0 | BTK 0 | CAMK2A 0 | CAMK2G 0 | CDK10 = 0 | CDK2 = 0 | CDK3 = 0 | CDK4 = 0 | CDK5 = 0 | CDK6 = 0

Oc1cc2c(cc1O)C(Cc1cccc3ccccc13)NCC2 (stereo not given) (10 µM)
inactive: ABL1 = 0 | AKT1 = 0 | ALK 0 | ARAF 0 | AURKA 0 | AURKB 0 | AURKC 0 | BLK 0 | BMX 0 | BRAF 0 | BRAF_V600E 0 | BTK 0 | CAMK2A 0 | CAMK2G 0 | CDK10 = 0 | CDK2 = 0 | CDK3 = 0 | CDK4 = 0 | CDK5 = 0 | CDK6 = 0

O=c1cc(CN2CCOCC2)occ1OCCCCCSc1ccnc2cc(C(F)(F)F)ccc12 (10 µM)
inactive: ABL1 = 0 | AKT1 = 0 | ALK 0 | ARAF 0 | AURKA 0 | AURKB 0 | AURKC 0 | BLK 0 | BMX 0 | BRAF 0 | BRAF_V600E 0 | BTK 0 | CAMK2A 0 | CAMK2G 0 | CDK10 = 0 | CDK2 = 0 | CDK3 = 0 | CDK4 = 0 | CDK5 = 0 | CDK6 = 0

CCc1c(C(=O)NNC(=O)C(O)c2cc(F)cc(F)c2)ccc(O)c1C (stereo not given) (10 µM)
inactive: ABL1 = 0 | AKT1 = 0 | ALK 0 | ARAF 0 | AURKA 0 | AURKB 0 | AURKC 0 | BLK 0 | BMX 0 | BRAF 0 | BRAF_V600E 0 | BTK 0 | CAMK2A 0 | CAMK2G 0 | CDK10 = 0 | CDK2 = 0 | CDK3 = 0 | CDK4 = 0 | CDK5 = 0 | CDK6 = 0

CC[C@@H](Oc1nc(Oc2cc(C)cc(-c3cccc(CN)c3)c2)c(F)cc1F)C(=O)O (10 µM)
inactive: ABL1 = 0 | AKT1 = 0 | ALK 0 | ARAF 0 | AURKA 0 | AURKB 0 | AURKC 0 | BLK 0 | BMX 0 | BRAF 0 | BRAF_V600E 0 | BTK 0 | CAMK2A 0 | CAMK2G 0 | CDK10 = 0 | CDK2 = 0 | CDK3 = 0 | CDK4 = 0 | CDK5 = 0 | CDK6 = 0
